Paper PMC3718702
No constants are given. Whether binding was seen depends on the method and setting. Binding seen in cells or lysates may run through a third protein. Some binding calls cover weakened binding; strength is not graded here.

Protein sequences, listed by entry. Tags and fused reporters are not part of them. Residues count along the entry.
UniProt P02769, residues 25-607: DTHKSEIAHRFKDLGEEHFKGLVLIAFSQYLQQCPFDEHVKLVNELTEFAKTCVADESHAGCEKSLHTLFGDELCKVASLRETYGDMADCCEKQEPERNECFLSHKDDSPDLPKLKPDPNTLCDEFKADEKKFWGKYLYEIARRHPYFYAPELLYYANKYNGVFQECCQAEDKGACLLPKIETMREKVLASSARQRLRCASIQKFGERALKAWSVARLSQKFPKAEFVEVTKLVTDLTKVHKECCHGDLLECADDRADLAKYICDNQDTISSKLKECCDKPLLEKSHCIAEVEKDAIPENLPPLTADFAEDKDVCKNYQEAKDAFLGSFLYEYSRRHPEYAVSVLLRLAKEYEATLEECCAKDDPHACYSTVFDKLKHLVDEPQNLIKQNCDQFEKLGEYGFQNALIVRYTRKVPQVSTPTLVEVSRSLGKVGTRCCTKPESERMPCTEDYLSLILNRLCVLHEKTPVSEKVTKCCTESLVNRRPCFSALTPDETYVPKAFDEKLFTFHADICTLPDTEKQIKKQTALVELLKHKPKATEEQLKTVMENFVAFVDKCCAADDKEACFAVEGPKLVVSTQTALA
UniProt P10809, residues 27-573: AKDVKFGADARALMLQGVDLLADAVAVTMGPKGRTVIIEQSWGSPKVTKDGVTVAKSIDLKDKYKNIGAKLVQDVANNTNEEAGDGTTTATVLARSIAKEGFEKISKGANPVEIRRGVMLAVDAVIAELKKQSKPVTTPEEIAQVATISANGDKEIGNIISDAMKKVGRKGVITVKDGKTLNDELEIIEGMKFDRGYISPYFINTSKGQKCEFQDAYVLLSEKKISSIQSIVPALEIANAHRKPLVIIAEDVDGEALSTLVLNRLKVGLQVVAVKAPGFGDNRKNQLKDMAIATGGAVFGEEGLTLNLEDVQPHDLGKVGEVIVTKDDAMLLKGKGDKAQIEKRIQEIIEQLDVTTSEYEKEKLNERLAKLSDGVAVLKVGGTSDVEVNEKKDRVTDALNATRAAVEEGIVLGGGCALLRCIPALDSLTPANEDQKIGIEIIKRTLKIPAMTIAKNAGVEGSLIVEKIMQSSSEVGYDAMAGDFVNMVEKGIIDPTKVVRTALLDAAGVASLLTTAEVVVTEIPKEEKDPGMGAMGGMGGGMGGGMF

Biological target: bovine serum albumin (bovine) (UniProt P02769)
Experiment: co-IP; 2 mg lysate of untreated and azacytidine-treated myeloma cells incubated with 6 ug anti-bovine albumin antibody and protein A/G agarose beads overnight at 4°C; three washes with cell lysis buffer; eluate blotted with anti-HSP60

binding: binds
Substance: 60 kDa heat shock protein, mitochondrial (from UniProt P10809 27-573)
